Measured values as given in the supplement of paper PMC10032668.
The other results are listed elsewhere or left out. The list holds hits alone, and they repeat only in part.

Amino acid sequences for entries named in this document (tags omitted).
APOA1, P02647, UniProt P02647, whole entry: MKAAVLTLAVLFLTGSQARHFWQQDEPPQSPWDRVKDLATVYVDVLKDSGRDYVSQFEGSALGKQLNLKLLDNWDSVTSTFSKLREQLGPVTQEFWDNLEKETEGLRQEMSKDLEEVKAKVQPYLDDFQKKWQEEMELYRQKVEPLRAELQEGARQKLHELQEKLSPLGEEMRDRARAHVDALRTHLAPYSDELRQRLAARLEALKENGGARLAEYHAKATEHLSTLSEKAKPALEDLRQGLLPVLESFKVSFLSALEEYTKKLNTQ
NEDD8, Q15843, UniProt Q15843, whole entry: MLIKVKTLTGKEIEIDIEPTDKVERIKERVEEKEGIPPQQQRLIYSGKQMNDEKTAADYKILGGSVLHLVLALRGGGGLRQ
SS18, Q15532, UniProt Q15532, whole entry: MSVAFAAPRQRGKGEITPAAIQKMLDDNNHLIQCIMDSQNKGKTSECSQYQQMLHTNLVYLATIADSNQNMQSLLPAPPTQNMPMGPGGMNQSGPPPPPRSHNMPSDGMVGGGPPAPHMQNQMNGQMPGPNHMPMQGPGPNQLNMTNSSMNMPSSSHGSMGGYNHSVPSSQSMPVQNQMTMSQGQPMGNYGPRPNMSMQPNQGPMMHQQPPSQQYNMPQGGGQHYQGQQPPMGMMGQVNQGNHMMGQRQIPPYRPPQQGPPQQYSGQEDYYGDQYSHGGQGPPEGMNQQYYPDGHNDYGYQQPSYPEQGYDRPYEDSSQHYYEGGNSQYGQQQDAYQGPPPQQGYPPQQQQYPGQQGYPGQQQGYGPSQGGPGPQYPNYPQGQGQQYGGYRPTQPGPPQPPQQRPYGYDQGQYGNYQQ
EIF3F, O00303, UniProt O00303, whole entry: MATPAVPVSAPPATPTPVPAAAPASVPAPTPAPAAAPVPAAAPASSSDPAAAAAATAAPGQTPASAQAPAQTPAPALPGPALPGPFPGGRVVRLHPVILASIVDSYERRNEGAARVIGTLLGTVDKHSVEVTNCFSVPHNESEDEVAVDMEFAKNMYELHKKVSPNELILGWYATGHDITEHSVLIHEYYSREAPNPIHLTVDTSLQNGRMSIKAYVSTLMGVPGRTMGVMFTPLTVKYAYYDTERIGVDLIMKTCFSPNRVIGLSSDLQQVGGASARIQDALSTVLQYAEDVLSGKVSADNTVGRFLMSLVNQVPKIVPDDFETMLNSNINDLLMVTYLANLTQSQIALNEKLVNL
PSMC3, P17980, UniProt P17980, whole entry: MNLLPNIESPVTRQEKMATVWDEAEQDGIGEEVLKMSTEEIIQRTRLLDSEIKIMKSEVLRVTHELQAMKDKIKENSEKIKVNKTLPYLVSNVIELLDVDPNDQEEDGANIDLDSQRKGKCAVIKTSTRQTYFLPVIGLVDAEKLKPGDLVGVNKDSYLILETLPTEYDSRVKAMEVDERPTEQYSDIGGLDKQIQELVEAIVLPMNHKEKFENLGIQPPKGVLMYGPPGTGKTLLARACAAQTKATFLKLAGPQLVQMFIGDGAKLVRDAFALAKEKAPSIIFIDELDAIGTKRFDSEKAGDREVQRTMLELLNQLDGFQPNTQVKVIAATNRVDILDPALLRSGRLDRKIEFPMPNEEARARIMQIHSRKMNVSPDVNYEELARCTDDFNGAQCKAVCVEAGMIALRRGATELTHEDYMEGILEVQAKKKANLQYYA
CD2AP, Q9Y5K6, UniProt Q9Y5K6, whole entry: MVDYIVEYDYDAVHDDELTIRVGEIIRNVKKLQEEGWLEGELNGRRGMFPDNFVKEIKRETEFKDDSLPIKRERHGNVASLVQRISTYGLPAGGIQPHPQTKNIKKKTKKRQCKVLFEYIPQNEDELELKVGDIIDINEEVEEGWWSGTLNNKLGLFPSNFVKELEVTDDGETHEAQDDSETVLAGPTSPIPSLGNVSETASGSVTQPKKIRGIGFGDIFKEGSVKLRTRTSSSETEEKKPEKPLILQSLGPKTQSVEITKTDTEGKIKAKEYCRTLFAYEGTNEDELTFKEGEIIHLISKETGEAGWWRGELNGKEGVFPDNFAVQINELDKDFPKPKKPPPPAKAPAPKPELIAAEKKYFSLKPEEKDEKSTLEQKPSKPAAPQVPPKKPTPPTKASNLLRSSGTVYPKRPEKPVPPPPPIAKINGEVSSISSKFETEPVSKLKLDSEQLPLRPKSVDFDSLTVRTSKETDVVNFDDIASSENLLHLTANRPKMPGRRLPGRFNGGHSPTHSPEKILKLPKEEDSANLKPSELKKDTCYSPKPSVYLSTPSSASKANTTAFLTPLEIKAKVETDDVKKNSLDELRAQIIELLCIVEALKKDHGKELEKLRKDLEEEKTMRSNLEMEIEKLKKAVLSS
NCAPD2, Q15021, UniProt Q15021, whole entry: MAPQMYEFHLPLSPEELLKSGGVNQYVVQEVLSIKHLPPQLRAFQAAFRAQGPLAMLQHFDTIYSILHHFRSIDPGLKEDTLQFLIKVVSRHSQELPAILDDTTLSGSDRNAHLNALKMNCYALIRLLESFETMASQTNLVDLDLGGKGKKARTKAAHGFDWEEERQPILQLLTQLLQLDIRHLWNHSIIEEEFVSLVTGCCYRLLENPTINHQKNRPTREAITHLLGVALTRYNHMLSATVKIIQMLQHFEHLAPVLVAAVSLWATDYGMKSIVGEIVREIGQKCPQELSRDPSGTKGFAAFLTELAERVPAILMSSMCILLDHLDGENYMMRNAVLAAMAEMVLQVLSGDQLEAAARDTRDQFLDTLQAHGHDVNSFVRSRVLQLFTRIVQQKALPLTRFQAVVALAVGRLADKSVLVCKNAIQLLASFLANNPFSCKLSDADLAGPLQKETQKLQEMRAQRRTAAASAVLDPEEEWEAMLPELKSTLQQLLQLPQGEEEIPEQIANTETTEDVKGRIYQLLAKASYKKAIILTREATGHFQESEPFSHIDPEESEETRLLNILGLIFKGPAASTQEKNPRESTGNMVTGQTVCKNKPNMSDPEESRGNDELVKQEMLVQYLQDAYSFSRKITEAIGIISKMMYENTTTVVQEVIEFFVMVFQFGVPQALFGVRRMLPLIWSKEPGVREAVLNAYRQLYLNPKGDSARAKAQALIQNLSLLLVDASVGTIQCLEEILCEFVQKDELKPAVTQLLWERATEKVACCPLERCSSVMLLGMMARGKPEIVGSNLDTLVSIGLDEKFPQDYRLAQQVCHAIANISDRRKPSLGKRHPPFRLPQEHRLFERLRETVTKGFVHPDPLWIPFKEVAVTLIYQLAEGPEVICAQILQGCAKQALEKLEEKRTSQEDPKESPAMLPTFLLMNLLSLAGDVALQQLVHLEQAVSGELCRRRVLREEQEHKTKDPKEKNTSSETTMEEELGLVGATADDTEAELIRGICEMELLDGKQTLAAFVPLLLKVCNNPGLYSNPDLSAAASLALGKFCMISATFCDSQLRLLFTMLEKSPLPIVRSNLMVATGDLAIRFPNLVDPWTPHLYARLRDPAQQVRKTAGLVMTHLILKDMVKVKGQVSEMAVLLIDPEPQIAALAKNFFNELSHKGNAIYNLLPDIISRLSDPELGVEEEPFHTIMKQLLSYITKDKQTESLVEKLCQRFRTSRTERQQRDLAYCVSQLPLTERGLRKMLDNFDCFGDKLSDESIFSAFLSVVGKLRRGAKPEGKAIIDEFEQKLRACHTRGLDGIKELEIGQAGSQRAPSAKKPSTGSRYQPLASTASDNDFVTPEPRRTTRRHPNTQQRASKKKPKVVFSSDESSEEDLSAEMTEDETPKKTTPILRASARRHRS
PHF3, Q92576, UniProt Q92576, whole entry: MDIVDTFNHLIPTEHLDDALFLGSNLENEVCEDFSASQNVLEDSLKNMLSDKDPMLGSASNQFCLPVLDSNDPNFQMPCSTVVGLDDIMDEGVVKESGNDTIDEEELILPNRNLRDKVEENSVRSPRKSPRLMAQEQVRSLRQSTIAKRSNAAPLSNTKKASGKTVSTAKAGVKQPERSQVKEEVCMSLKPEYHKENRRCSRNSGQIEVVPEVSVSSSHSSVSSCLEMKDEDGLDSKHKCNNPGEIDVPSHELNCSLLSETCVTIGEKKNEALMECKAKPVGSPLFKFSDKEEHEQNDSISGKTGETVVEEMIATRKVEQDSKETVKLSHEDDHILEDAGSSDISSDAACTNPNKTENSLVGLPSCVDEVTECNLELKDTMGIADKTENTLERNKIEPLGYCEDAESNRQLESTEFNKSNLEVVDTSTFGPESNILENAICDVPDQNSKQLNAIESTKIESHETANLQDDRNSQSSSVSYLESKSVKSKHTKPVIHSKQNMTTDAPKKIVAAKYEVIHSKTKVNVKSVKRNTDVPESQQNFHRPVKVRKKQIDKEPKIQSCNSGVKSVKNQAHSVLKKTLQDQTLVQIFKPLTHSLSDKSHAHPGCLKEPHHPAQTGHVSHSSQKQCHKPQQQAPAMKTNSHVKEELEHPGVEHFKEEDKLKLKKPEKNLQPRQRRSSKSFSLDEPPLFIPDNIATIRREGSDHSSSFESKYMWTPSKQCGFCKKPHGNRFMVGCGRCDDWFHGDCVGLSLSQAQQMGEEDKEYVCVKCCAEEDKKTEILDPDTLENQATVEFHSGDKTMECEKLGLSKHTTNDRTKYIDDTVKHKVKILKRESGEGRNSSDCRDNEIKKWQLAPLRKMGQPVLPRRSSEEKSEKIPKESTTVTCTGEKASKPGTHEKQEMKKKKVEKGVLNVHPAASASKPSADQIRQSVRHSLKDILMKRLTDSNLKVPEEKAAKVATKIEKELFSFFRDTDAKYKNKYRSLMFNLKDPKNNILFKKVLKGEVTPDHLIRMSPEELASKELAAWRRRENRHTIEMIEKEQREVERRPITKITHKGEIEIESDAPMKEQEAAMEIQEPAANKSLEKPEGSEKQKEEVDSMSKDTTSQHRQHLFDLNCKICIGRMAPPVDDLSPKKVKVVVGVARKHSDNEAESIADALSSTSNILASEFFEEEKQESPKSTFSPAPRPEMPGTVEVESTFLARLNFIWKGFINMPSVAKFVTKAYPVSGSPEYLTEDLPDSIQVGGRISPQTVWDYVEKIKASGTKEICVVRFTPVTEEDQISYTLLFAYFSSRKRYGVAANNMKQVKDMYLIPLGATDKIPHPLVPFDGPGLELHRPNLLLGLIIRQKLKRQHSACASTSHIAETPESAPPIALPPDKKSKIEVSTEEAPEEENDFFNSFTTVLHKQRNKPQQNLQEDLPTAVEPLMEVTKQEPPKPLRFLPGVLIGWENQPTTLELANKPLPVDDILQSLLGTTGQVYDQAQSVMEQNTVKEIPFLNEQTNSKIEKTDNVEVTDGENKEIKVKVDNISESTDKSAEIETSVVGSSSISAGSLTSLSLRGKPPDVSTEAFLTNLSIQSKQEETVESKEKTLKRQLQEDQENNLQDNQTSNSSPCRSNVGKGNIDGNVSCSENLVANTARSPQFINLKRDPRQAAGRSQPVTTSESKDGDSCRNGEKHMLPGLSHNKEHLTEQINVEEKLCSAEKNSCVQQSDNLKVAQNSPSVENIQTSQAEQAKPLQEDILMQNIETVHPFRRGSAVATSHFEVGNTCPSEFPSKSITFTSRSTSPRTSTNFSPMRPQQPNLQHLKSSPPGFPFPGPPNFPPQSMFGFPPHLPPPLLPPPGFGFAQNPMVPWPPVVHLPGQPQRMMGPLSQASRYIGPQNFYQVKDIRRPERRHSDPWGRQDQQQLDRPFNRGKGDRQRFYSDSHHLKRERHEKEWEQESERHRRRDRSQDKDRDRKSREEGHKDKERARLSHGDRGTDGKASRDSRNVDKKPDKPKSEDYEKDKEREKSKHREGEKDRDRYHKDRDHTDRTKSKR
TUBGCP3, Q96CW5, UniProt Q96CW5, whole entry: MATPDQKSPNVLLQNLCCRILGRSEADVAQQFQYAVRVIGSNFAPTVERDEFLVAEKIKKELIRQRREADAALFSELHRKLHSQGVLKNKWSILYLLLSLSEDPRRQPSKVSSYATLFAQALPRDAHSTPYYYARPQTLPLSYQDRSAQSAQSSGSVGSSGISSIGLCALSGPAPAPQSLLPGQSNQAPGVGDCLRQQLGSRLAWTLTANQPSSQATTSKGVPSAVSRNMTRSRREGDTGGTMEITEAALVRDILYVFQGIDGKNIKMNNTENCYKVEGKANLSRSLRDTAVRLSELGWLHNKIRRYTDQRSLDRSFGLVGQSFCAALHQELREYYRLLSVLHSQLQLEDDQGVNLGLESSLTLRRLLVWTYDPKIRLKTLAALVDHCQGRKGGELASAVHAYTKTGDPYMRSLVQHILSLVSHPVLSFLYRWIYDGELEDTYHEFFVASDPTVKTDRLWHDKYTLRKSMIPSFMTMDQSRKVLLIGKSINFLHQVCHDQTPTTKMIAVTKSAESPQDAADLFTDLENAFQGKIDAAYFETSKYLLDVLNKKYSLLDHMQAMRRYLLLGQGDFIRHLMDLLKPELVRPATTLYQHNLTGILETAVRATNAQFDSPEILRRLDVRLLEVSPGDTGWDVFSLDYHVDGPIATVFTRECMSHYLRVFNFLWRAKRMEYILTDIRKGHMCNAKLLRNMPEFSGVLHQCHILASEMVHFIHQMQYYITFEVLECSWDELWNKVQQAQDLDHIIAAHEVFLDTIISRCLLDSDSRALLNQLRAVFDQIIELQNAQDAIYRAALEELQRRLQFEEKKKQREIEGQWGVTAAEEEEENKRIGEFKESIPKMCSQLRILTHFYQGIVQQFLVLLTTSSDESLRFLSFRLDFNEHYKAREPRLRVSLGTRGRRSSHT

Assays:
Assay in all cases: PRISMA enrichment of interactor (LFQ) in peptide spot vs all other peptide spots (log2 fold change); higher = stronger / more specific binding of the interactor to the peptide
APOA1, P02647 = target: APOA1, P02647
Protocol: (§1)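 PRISMA: 15-aa overlapping tiles (offset 8 aa) of 60 microproteins, plus SOS1/GLUT1 control peptides, were spot-synthesized on cellulose membranes in triplicate. Membranes were incubated with benzonase-treated HEK293T lysate, and bound proteins were identified by LC-MS/MS with LFQ. Enrichment is the log2 fold change of each protein in one spot versus all other spots. Only interactors passing the significance cutoff are listed.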

C1orf131, Q8NDD1 = target: C1orf131, Q8NDD1
Protocol: as §1

CC2D1A, Q6P1N0 = target: CC2D1A, Q6P1N0
Protocol: as §1

CTR9, Q6PD62 = target: CTR9, Q6PD62
Protocol: as §1

DSG2, Q14126 = target: DSG2, Q14126
Protocol: as §1

FAM98A, Q8NCA5 = target: FAM98A, Q8NCA5
Protocol: as §1

IGF2BP2, Q9Y6M1 = target: IGF2BP2, Q9Y6M1
Protocol: as §1

ITIH2, P19823 = target: ITIH2, P19823
Protocol: as §1

NEDD8, Q15843 = target: NEDD8, Q15843
Protocol: as §1

NMT1, P30419 = target: NMT1, P30419
Protocol: as §1

[1] = substrate: NOSIP, Q9Y314
Protocol: as §1

RCE1, Q9Y256 = target: RCE1, Q9Y256
Protocol: as §1

SGPP1, Q9BX95 = target: SGPP1, Q9BX95
Protocol: as §1

SLC25A1, P53007 = target: SLC25A1, P53007
Protocol: as §1

SS18, Q15532 = target: SS18, Q15532
Protocol: as §1

TEX264, Q9Y6I9 = target: TEX264, Q9Y6I9
Protocol: as §1

TWNK, Q96RR1 = target: TWNK, Q96RR1
Protocol: as §1

UFD1, Q92890 = target: UFD1, Q92890
Protocol: as §1

WTAP, Q15007 = target: WTAP, Q15007
Protocol: as §1

YTHDC2, Q9H6S0 = target: YTHDC2, Q9H6S0
Protocol: as §1

ZNF703, Q9H7S9 = target: ZNF703, Q9H7S9
Protocol: as §1

C3, P01024 = target: C3, P01024
Protocol: as §1

DCUN1D5, Q9BTE7 = target: DCUN1D5, Q9BTE7
Protocol: as §1

EIF3F, O00303 = target: EIF3F, O00303
Protocol: as §1

GNAI2, P04899 = target: GNAI2, P04899
Protocol: as §1

HNRNPR, O43390 = target: HNRNPR, O43390
Protocol: as §1

MAPRE1, Q15691 = target: MAPRE1, Q15691
Protocol: as §1

MRPS25, P82663 = target: MRPS25, P82663
Protocol: as §1

PSMC3, P17980 = target: PSMC3, P17980
Protocol: as §1

PSMD7, P51665 = target: PSMD7, P51665
Protocol: as §1

PTDSS1, P48651 = target: PTDSS1, P48651
Protocol: as §1

RBM4, Q9BWF3 = target: RBM4, Q9BWF3
Protocol: as §1

YTHDC1, Q96MU7 = target: YTHDC1, Q96MU7
Protocol: as §1

APOA4, P06727 = target: APOA4, P06727
Protocol: as §1

CD2AP, Q9Y5K6 = target: CD2AP, Q9Y5K6
Protocol: as §1

DNAJB12, Q9NXW2 = target: DNAJB12, Q9NXW2
Protocol: as §1

DPM3, Q9P2X0 = target: DPM3, Q9P2X0
Protocol: as §1

FAM168A, Q92567 = target: FAM168A, Q92567
Protocol: as §1

HNRNPUL1, Q9BUJ2 = target: HNRNPUL1, Q9BUJ2
Protocol: as §1

MRPL34, Q9BQ48 = target: MRPL34, Q9BQ48
Protocol: as §1

MRPS5, P82675 = target: MRPS5, P82675
Protocol: as §1

NCAPD2, Q15021 = target: NCAPD2, Q15021
Protocol: as §1

NSUN5, Q96P11 = target: NSUN5, Q96P11
Protocol: as §1

NUP155, O75694 = target: NUP155, O75694
Protocol: as §1

PHF3, Q92576 = target: PHF3, Q92576
Protocol: as §1

PIK3C3, Q8NEB9 = target: PIK3C3, Q8NEB9
Protocol: as §1

PYCR3, Q53H96 = target: PYCR3, Q53H96
Protocol: as §1

RBL2, Q08999 = target: RBL2, Q08999
Protocol: as §1

RBM33, Q96EV2 = target: RBM33, Q96EV2
Protocol: as §1

RMDN3, Q96TC7 = target: RMDN3, Q96TC7
Protocol: as §1

SCO2, O43819 = target: SCO2, O43819
Protocol: as §1

SCYL1, Q96KG9 = target: SCYL1, Q96KG9
Protocol: as §1

TRA2B, P62995 = target: TRA2B, P62995
Protocol: as §1

TRIM32, Q13049 = target: TRIM32, Q13049
Protocol: as §1

TUBGCP3, Q96CW5 = target: TUBGCP3, Q96CW5
Protocol: as §1

ZNF622, Q969S3 = target: ZNF622, Q969S3
Protocol: as §1

AEPASQWVPVRNSST [RP11-432J24.5_2]
PRISMA enrichment of interactor (log2) (APOA1, P02647): 4.61 | PRISMA enrichment of interactor (log2) (C1orf131, Q8NDD1): 4.95 | PRISMA enrichment of interactor (log2) (CC2D1A, Q6P1N0): 5.32 | PRISMA enrichment of interactor (log2) (CTR9, Q6PD62): 5.28 | PRISMA enrichment of interactor (log2) (DSG2, Q14126): 4.26 | PRISMA enrichment of interactor (log2) (FAM98A, Q8NCA5): 5.44 | PRISMA enrichment of interactor (log2) (IGF2BP2, Q9Y6M1): 7.41 | PRISMA enrichment of interactor (log2) (ITIH2, P19823): 4.06 | PRISMA enrichment of interactor (log2) (NEDD8, Q15843): 4.42 | PRISMA enrichment of interactor (log2) (NMT1, P30419): 6.12 | PRISMA enrichment of interactor (log2) [1]: 4.89 | PRISMA enrichment of interactor (log2) (RCE1, Q9Y256): 3.96 | PRISMA enrichment of interactor (log2) (SGPP1, Q9BX95): 4.64 | PRISMA enrichment of interactor (log2) (SLC25A1, P53007): 4.41 | PRISMA enrichment of interactor (log2) (SS18, Q15532): 4.72 | PRISMA enrichment of interactor (log2) (TEX264, Q9Y6I9): 4.99 | PRISMA enrichment of interactor (log2) (TWNK, Q96RR1): 5.7 | PRISMA enrichment of interactor (log2) (UFD1, Q92890): 6.36 | PRISMA enrichment of interactor (log2) (WTAP, Q15007): 4.44 | PRISMA enrichment of interactor (log2) (YTHDC2, Q9H6S0): 8.17 | PRISMA enrichment of interactor (log2) (ZNF703, Q9H7S9): 4.2

QLSLPTKIGGACFRV [ZEB2]
PRISMA enrichment of interactor (log2) (APOA1, P02647): 4.33 | PRISMA enrichment of interactor (log2) (C3, P01024): 4.58 | PRISMA enrichment of interactor (log2) (DCUN1D5, Q9BTE7): 4.56 | PRISMA enrichment of interactor (log2) (EIF3F, O00303): 4.98 | PRISMA enrichment of interactor (log2) (GNAI2, P04899): 4.8 | PRISMA enrichment of interactor (log2) (HNRNPR, O43390): 5.82 | PRISMA enrichment of interactor (log2) (MAPRE1, Q15691): 4.46 | PRISMA enrichment of interactor (log2) (MRPS25, P82663): 5.53 | PRISMA enrichment of interactor (log2) (PSMC3, P17980): 5.14 | PRISMA enrichment of interactor (log2) (PSMD7, P51665): 6.57 | PRISMA enrichment of interactor (log2) (PTDSS1, P48651): 4.97 | PRISMA enrichment of interactor (log2) (RBM4, Q9BWF3): 5.06 | PRISMA enrichment of interactor (log2) (YTHDC1, Q96MU7): 5.81

LFTGISAAATAHSYP [IFRD1]
PRISMA enrichment of interactor (log2) (APOA4, P06727): 4.38 | PRISMA enrichment of interactor (log2) (CD2AP, Q9Y5K6): 5.3 | PRISMA enrichment of interactor (log2) (DNAJB12, Q9NXW2): 4.5 | PRISMA enrichment of interactor (log2) (DPM3, Q9P2X0): 3.92 | PRISMA enrichment of interactor (log2) (FAM168A, Q92567): 4.53 | PRISMA enrichment of interactor (log2) (HNRNPUL1, Q9BUJ2): 6.1 | PRISMA enrichment of interactor (log2) (MRPL34, Q9BQ48): 4.43 | PRISMA enrichment of interactor (log2) (MRPS5, P82675): 6.59 | PRISMA enrichment of interactor (log2) (NCAPD2, Q15021): 5.05 | PRISMA enrichment of interactor (log2) (NSUN5, Q96P11): 4.74 | PRISMA enrichment of interactor (log2) (NUP155, O75694): 4.62 | PRISMA enrichment of interactor (log2) (PHF3, Q92576): 6.6 | PRISMA enrichment of interactor (log2) (PIK3C3, Q8NEB9): 4.1 | PRISMA enrichment of interactor (log2) (PYCR3, Q53H96): 4.99 | PRISMA enrichment of interactor (log2) (RBL2, Q08999): 7.78 | PRISMA enrichment of interactor (log2) (RBM33, Q96EV2): 4.57 | PRISMA enrichment of interactor (log2) (RMDN3, Q96TC7): 5.92 | PRISMA enrichment of interactor (log2) (SCO2, O43819): 5.67 | PRISMA enrichment of interactor (log2) (SCYL1, Q96KG9): 4.63 | PRISMA enrichment of interactor (log2) (TRA2B, P62995): 5.76 | PRISMA enrichment of interactor (log2) (TRIM32, Q13049): 4.76 | PRISMA enrichment of interactor (log2) (TUBGCP3, Q96CW5): 5.92 | PRISMA enrichment of interactor (log2) (ZNF622, Q969S3): 4.91
